PubChem BioAssay AID1508597, Cure First | 2020

Assay: 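Genes whose silencing sensitises or protects ovarian cancer cells against rucaparib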 (primary screen)
System: human ovarian carcinoma lines grown from tumours: OCI-P5x (papillary serous) and OCI-C5x (clear cell)
Knock-down reagent: siRNA pool against human genes, 1.25 pmol siRNA per well
Duration: 72 h or 96 h, depending on the cell culture
Challenge: rucaparib 20 µM (about IC30) or vehicle, present until read-out
Read-out: 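Luminescent ATP-based viability assay read 72 or 96 h after transfection, depending on culture, given as normalised percent viability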
Scale: viability, normalised: higher = more viable cells remaining
Active means: 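a well counts as a hit if its normalised viability is under 80 percent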
Calls: active = viability under 80%; inactive = viability 80% or more
Here is one part, drawn at random, of about 2,100 reagents. 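Calls flag viability under 80% in either arm, not effects specific to rucaparib; the reference for percent is not stated.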 Reagent sequences are not shown. Not given: the 100% reference.

| target | rucaparib or vehicle | cell line | technical replicate | viability, normalised (%) | activity call |
| --- | --- | --- | --- | --- | --- |
| PKD2L2 | Rucaparib | OCI-C5x (clear cell) | 1 | 68.8 | active |
| PKD2L2 | Rucaparib | OCI-C5x (clear cell) | 2 | 60.4 | active |
| PKD2L2 | Rucaparib | OCI-C5x (clear cell) | 3 | 69.3 | active |
| PKD2L2 | Rucaparib | OCI-P5x (serous) | 1 | 78.5 | active |
| PKD2L2 | Rucaparib | OCI-P5x (serous) | 2 | 89.8 | inactive |
| PKD2L2 | Rucaparib | OCI-P5x (serous) | 3 | 77.4 | active |
| PKD2L2 | Vehicle | OCI-C5x (clear cell) | 1 | 67.9 | active |
| PKD2L2 | Vehicle | OCI-C5x (clear cell) | 2 | 59.1 | active |
| PKD2L2 | Vehicle | OCI-C5x (clear cell) | 3 | 48.5 | active |
| PKD2L2 | Vehicle | OCI-P5x (serous) | 1 | 66.8 | active |
| PKD2L2 | Vehicle | OCI-P5x (serous) | 2 | 71.6 | active |
| PKD2L2 | Vehicle | OCI-P5x (serous) | 3 | 71.5 | active |

3 consecutive records already listed, quoted:
| target | rucaparib or vehicle | cell line | technical replicate | viability, normalised (%) | activity call |
| --- | --- | --- | --- | --- | --- |
| PKD2L2 | Vehicle | OCI-P5x (serous) | 1 | 66.8 | active |
| PKD2L2 | Vehicle | OCI-P5x (serous) | 2 | 71.6 | active |
| PKD2L2 | Vehicle | OCI-P5x (serous) | 3 | 71.5 | active |

The listing continues.
| target | rucaparib or vehicle | cell line | technical replicate | viability, normalised (%) | activity call |
| --- | --- | --- | --- | --- | --- |
| RAD51AP1 | Rucaparib | OCI-C5x (clear cell) | 1 | 80.6 | inactive |
| RAD51AP1 | Rucaparib | OCI-C5x (clear cell) | 2 | 62.1 | active |
| RAD51AP1 | Rucaparib | OCI-C5x (clear cell) | 3 | 62.4 | active |
| RAD51AP1 | Rucaparib | OCI-P5x (serous) | 1 | 68.8 | active |
| RAD51AP1 | Rucaparib | OCI-P5x (serous) | 2 | 68.8 | active |
| RAD51AP1 | Rucaparib | OCI-P5x (serous) | 3 | 80.1 | inactive |
| RAD51AP1 | Vehicle | OCI-C5x (clear cell) | 1 | 62.2 | active |
| RAD51AP1 | Vehicle | OCI-C5x (clear cell) | 2 | 51.5 | active |
| RAD51AP1 | Vehicle | OCI-C5x (clear cell) | 3 | 52.3 | active |
| RAD51AP1 | Vehicle | OCI-P5x (serous) | 1 | 71.9 | active |
| RAD51AP1 | Vehicle | OCI-P5x (serous) | 2 | 74.4 | active |
| RAD51AP1 | Vehicle | OCI-P5x (serous) | 3 | 83.6 | inactive |
